One test deals with Flag-YAP (wild type) (UniProt P46937). As to the kind of experiment: co-IP; tagged bait immunoprecipitated by Flag or Myc antibody from A549 cells infected with lentivirus or transfected with wild type or mutant, immunoblotted for the partners (Fig. 5D-F, Supplementary Fig. 6A). Background: A western blot detects proteins with antibodies after separation by electrophoresis.
Another test concerns the target Myc-FAK, Q05397. The test is described as above. To be noted: remark: other sources report otherwise.
The target of test [1] is T1, P130cas (endogenous) (human (endogenous in A549)), P56945.
T1 chain: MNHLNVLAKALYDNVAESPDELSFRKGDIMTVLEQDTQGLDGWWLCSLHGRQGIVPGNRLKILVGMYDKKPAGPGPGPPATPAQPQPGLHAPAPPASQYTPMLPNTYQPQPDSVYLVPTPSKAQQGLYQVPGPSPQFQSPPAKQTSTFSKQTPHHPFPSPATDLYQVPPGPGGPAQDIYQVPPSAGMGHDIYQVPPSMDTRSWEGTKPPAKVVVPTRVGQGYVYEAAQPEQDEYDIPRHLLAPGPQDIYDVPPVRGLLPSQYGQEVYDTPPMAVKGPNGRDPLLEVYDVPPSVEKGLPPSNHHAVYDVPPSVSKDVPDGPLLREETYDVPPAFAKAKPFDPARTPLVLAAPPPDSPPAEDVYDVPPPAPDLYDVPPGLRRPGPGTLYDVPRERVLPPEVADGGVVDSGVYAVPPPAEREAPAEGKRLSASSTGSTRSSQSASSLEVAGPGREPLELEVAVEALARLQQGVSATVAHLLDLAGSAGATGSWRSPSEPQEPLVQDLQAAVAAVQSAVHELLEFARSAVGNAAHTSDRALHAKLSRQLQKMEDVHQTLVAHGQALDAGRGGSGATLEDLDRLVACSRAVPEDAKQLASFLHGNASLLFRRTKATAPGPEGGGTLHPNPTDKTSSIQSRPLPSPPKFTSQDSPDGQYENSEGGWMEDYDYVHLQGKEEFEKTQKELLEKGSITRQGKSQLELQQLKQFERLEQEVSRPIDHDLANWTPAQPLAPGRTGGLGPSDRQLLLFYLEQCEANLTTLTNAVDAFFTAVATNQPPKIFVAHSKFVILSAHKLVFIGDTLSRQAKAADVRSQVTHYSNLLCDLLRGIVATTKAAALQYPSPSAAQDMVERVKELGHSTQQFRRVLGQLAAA
As to the kind of experiment: co-IP; endogenous P130cas, YAP or FAK immunoprecipitated from A549 cells and immunoblotted (Fig. 5A-C). To be noted: remark: other sources report otherwise.

Chains of the proteins cited; added tags and fusions are not shown.
UniProt P46937: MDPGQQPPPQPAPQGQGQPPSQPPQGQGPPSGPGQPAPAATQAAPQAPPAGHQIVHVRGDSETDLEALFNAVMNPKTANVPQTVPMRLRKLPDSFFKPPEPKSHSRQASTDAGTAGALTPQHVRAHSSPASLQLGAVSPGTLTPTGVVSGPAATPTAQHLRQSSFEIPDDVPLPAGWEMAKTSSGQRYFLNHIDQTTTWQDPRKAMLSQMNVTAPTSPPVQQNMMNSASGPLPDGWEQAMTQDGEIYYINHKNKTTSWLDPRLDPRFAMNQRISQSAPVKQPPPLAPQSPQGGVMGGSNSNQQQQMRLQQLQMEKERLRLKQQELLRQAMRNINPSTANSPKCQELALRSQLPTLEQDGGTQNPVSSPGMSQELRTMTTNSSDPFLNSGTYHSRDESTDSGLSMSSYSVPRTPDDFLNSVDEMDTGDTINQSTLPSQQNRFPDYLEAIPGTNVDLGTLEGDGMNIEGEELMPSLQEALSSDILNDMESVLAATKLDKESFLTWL

For test [2], the target named is T2, Flag-P130cas (full-length), P56945.
T2 chain: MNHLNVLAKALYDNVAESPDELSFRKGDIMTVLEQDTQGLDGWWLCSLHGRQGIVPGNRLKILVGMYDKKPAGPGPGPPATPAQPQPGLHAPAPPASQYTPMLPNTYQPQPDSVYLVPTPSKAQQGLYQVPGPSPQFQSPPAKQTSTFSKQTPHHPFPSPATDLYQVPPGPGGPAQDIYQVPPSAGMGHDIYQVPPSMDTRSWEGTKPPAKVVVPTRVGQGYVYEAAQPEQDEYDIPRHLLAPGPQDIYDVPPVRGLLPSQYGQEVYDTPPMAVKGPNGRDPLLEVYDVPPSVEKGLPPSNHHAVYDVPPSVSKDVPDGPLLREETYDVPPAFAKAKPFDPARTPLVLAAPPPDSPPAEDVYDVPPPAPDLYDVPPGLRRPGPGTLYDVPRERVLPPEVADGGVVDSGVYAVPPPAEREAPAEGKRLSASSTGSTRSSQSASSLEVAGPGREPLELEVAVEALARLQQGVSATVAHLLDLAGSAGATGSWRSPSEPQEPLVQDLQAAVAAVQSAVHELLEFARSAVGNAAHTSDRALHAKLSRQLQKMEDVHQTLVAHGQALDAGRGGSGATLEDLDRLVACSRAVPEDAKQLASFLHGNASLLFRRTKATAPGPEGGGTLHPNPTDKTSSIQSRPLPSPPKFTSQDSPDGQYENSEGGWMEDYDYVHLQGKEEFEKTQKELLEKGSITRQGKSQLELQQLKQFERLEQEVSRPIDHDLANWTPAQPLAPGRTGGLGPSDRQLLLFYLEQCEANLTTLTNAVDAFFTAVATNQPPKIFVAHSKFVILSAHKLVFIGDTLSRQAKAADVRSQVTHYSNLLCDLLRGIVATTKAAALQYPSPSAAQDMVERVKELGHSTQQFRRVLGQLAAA
As to the kind of experiment: co-IP; tagged bait immunoprecipitated by Flag or Myc antibody from A549 cells infected with lentivirus or transfected with wild type or mutant, immunoblotted for the partners (Fig. 5D-F, Supplementary Fig. 6A). To be noted: remark: other sources report otherwise.

No constants are given. Whether binding was seen depends on the method and setting. In cells and extracts the contact can be indirect. Some binding calls cover weakened binding; strength is not graded here. For some of these results: Sequences can lack the tags named with a protein.

B1: P130cas (endogenous) (protein, UniProt P56945 1-870)
chain: MNHLNVLAKALYDNVAESPDELSFRKGDIMTVLEQDTQGLDGWWLCSLHGRQGIVPGNRLKILVGMYDKKPAGPGPGPPATPAQPQPGLHAPAPPASQYTPMLPNTYQPQPDSVYLVPTPSKAQQGLYQVPGPSPQFQSPPAKQTSTFSKQTPHHPFPSPATDLYQVPPGPGGPAQDIYQVPPSAGMGHDIYQVPPSMDTRSWEGTKPPAKVVVPTRVGQGYVYEAAQPEQDEYDIPRHLLAPGPQDIYDVPPVRGLLPSQYGQEVYDTPPMAVKGPNGRDPLLEVYDVPPSVEKGLPPSNHHAVYDVPPSVSKDVPDGPLLREETYDVPPAFAKAKPFDPARTPLVLAAPPPDSPPAEDVYDVPPPAPDLYDVPPGLRRPGPGTLYDVPRERVLPPEVADGGVVDSGVYAVPPPAEREAPAEGKRLSASSTGSTRSSQSASSLEVAGPGREPLELEVAVEALARLQQGVSATVAHLLDLAGSAGATGSWRSPSEPQEPLVQDLQAAVAAVQSAVHELLEFARSAVGNAAHTSDRALHAKLSRQLQKMEDVHQTLVAHGQALDAGRGGSGATLEDLDRLVACSRAVPEDAKQLASFLHGNASLLFRRTKATAPGPEGGGTLHPNPTDKTSSIQSRPLPSPPKFTSQDSPDGQYENSEGGWMEDYDYVHLQGKEEFEKTQKELLEKGSITRQGKSQLELQQLKQFERLEQEVSRPIDHDLANWTPAQPLAPGRTGGLGPSDRQLLLFYLEQCEANLTTLTNAVDAFFTAVATNQPPKIFVAHSKFVILSAHKLVFIGDTLSRQAKAADVRSQVTHYSNLLCDLLRGIVATTKAAALQYPSPSAAQDMVERVKELGHSTQQFRRVLGQLAAA
For the molecule B1, the binding result with Flag-YAP (wild type) is “binds”.

B2: P130cas (endogenous), P56945 1-870 (protein)
chain: MNHLNVLAKALYDNVAESPDELSFRKGDIMTVLEQDTQGLDGWWLCSLHGRQGIVPGNRLKILVGMYDKKPAGPGPGPPATPAQPQPGLHAPAPPASQYTPMLPNTYQPQPDSVYLVPTPSKAQQGLYQVPGPSPQFQSPPAKQTSTFSKQTPHHPFPSPATDLYQVPPGPGGPAQDIYQVPPSAGMGHDIYQVPPSMDTRSWEGTKPPAKVVVPTRVGQGYVYEAAQPEQDEYDIPRHLLAPGPQDIYDVPPVRGLLPSQYGQEVYDTPPMAVKGPNGRDPLLEVYDVPPSVEKGLPPSNHHAVYDVPPSVSKDVPDGPLLREETYDVPPAFAKAKPFDPARTPLVLAAPPPDSPPAEDVYDVPPPAPDLYDVPPGLRRPGPGTLYDVPRERVLPPEVADGGVVDSGVYAVPPPAEREAPAEGKRLSASSTGSTRSSQSASSLEVAGPGREPLELEVAVEALARLQQGVSATVAHLLDLAGSAGATGSWRSPSEPQEPLVQDLQAAVAAVQSAVHELLEFARSAVGNAAHTSDRALHAKLSRQLQKMEDVHQTLVAHGQALDAGRGGSGATLEDLDRLVACSRAVPEDAKQLASFLHGNASLLFRRTKATAPGPEGGGTLHPNPTDKTSSIQSRPLPSPPKFTSQDSPDGQYENSEGGWMEDYDYVHLQGKEEFEKTQKELLEKGSITRQGKSQLELQQLKQFERLEQEVSRPIDHDLANWTPAQPLAPGRTGGLGPSDRQLLLFYLEQCEANLTTLTNAVDAFFTAVATNQPPKIFVAHSKFVILSAHKLVFIGDTLSRQAKAADVRSQVTHYSNLLCDLLRGIVATTKAAALQYPSPSAAQDMVERVKELGHSTQQFRRVLGQLAAA
Regarding B2, the binding result with Myc-FAK, Q05397 is reported as “binds”.

B3: focal adhesion kinase (FAK), endogenous, Q05397 1-1052 (protein)
chain: MAAAYLDPNLNHTPNSSTKTHLGTGMERSPGAMERVLKVFHYFESNSEPTTWASIIRHGDATDVRGIIQKIVDSHKVKHVACYGFRLSHLRSEEVHWLHVDMGVSSVREKYELAHPPEEWKYELRIRYLPKGFLNQFTEDKPTLNFFYQQVKSDYMLEIADQVDQEIALKLGCLEIRRSYWEMRGNALEKKSNYEVLEKDVGLKRFFPKSLLDSVKAKTLRKLIQQTFRQFANLNREESILKFFEILSPVYRFDKECFKCALGSSWIISVELAIGPEEGISYLTDKGCNPTHLADFTQVQTIQYSNSEDKDRKGMLQLKIAGAPEPLTVTAPSLTIAENMADLIDGYCRLVNGTSQSFIIRPQKEGERALPSIPKLANSEKQGMRTHAVSVSETDDYAEIIDEEDTYTMPSTRDYEIQRERIELGRCIGEGQFGDVHQGIYMSPENPALAVAIKTCKNCTSDSVREKFLQEALTMRQFDHPHIVKLIGVITENPVWIIMELCTLGELRSFLQVRKYSLDLASLILYAYQLSTALAYLESKRFVHRDIAARNVLVSSNDCVKLGDFGLSRYMEDSTYYKASKGKLPIKWMAPESINFRRFTSASDVWMFGVCMWEILMHGVKPFQGVKNNDVIGRIENGERLPMPPNCPPTLYSLMTKCWAYDPSRRPRFTELKAQLSTILEEEKAQQEERMRMESRRQATVSWDSGGSDEAPPKPSRPGYPSPRSSEGFYPSPQHMVQTNHYQVSGYPGSHGITAMAGSIYPGQASLLDQTDSWNHRPQEIAMWQPNVEDSTVLDLRGIGQVLPTHLMEERLIRQQQEMEEDQRWLEKEERFLKPDVRLSRGSIDREDGSLQGPIGNQHIYQPVGKPDPAAPPKKPPRPGAPGHLGSLASLSSPADSYNEGVKLQPQEISPPPTANLDRSNDKVYENVTGLVKAVIEMSSKIQPAPPEEYVPMVKEVGLALRTLLATVDETIPLLPASTHREIEMAQKLLNSDLGELINKMKLAQQYVMTSLQQEYKKQMLTAAHALAVDAKNLLDVIDQARLKMLGQTRPH
Consider B3, for which the binding result in test [1] and in test [2] was “binds” throughout.

These data come from paper PMC9464229.
